Measured values reported in US20160120877A1, “PHARMACEUTICAL COMPOSITIONS FOR SUSTAINED DELIVERY OF BENZODIAZEPINE ANTAGONISTS” (priority 2010, published 2016).
This continues a long series; more values of the same kind are listed elsewhere.

Assay: Dialysis diffusion: effect of sample concentration
Type: physicochemical
Description: Dialysis tubing cellulose membrane was cut into approximately 8 cm lengths, washed with hot water for 3 hours. Tubing was then treated with 0.3% (w/v) solution of sodium sulfide at 80° C. for 1 minute, washed with hot water (60° C.) for 2 minutes and followed by acidification with 0.2% sulfuric acid. Tubing was then rinsed with hot water to remove the acid. Test formulations were added, the tubing closed with nylon closures and placed in the dialysate. At various time periods, the dialysate was sampled and the flumazenil released measured by HPLC assay.
Experiments were conducted to test the effect of sample concentration on diffusion rate.
As described in 1.1 with 600 ml of phosphate buffer pH 4.0 as dialysate.
A=0.25 g of a 1.5% flumazenil solution in NMP
B=0.25 g of a 3.0% flumazenil solution in NMP
C=0.25 g of a 4.5% flumazenil solution in NMP

For `CCOC(=O)c1ncn2c1CN(C)C(=O)c1cc(F)ccc1-2` [flumazenil, ethyl 8-fluoro-5,6-dihydro-5-methyl-6-oxo-4H-imidazo[1,5-a](1,4)benzodiazepine-3-carboxylate], the “% flumazenil released” value (sample A1 (0.25 g of 1.5% solution in NMP), 4 h) was 101.2%, the “% flumazenil released” value (sample A1 (0.25 g of 1.5% solution in NMP), 5 h) was 101.4% and the “% flumazenil released” value (sample A1 (0.25 g of 1.5% solution in NMP), 6 h) was 101.3%. For the same compound, the “% flumazenil released” value (sample A1 (0.25 g of 1.5% solution in NMP), 24 h) was 100.1%, the “% flumazenil released” value (sample A2 (0.25 g of 1.5% solution in NMP), 4 h) was 101.3% and the “% flumazenil released” value (sample A2 (0.25 g of 1.5% solution in NMP), 5 h) was 101.0%. The “% flumazenil released” value (sample A2 (0.25 g of 1.5% solution in NMP), 6 h) was 101.2%, the “% flumazenil released” value (sample A2 (0.25 g of 1.5% solution in NMP), 24 h) was 100.0% and the “% flumazenil released” value (sample B1 (0.25 g of 3.0% solution in NMP), 3 h) was 83.4%. For the same compound, the “% flumazenil released” value (sample B1 (0.25 g of 3.0% solution in NMP), 4 h) was 89.9%, the “% flumazenil released” value (sample B1 (0.25 g of 3.0% solution in NMP), 5 h) was 94.6% and the “% flumazenil released” value (sample B1 (0.25 g of 3.0% solution in NMP), 6 h) was 97.9%. The “% flumazenil released” value (sample B1 (0.25 g of 3.0% solution in NMP), 24 h) was 99.6%, the “% flumazenil released” value (sample B2 (0.25 g of 3.0% solution in NMP), 3 h) was 86.9% and the “% flumazenil released” value (sample B2 (0.25 g of 3.0% solution in NMP), 4 h) was 92.9%. For the same compound, the “% flumazenil released” value (sample B2 (0.25 g of 3.0% solution in NMP), 5 h) was 96.6%, the “% flumazenil released” value (sample B2 (0.25 g of 3.0% solution in NMP), 6 h) was 99.1% and the “% flumazenil released” value (sample B2 (0.25 g of 3.0% solution in NMP), 24 h) was 99.2%. For the same compound, the “% flumazenil released” value (sample C1 (0.25 g of 4.5% solution in NMP), 3 h) was 52.3%, the “% flumazenil released” value (sample C1 (0.25 g of 4.5% solution in NMP), 4 h) was 63.4% and the “% flumazenil released” value (sample C1 (0.25 g of 4.5% solution in NMP), 5 h) was 72.5%. For the same compound, the “% flumazenil released” value (sample C1 (0.25 g of 4.5% solution in NMP), 6 h) was 80.7%, the “% flumazenil released” value (sample C1 (0.25 g of 4.5% solution in NMP), 24 h) was 100.4% and the “% flumazenil released” value (sample C2 (0.25 g of 4.5% solution in NMP), 3 h) was 54.9%. The “% flumazenil released” value (sample C2 (0.25 g of 4.5% solution in NMP), 4 h) was 64.3%, the “% flumazenil released” value (sample C2 (0.25 g of 4.5% solution in NMP), 5 h) was 71.7% and the “% flumazenil released” value (sample C2 (0.25 g of 4.5% solution in NMP), 6 h) was 78.5%. For the same compound, the “% flumazenil released” value (sample C2 (0.25 g of 4.5% solution in NMP), 24 h) was 100.3%.
